Experimental data: PubChem BioAssay AID493014 (National Center for Advancing Translational Sciences (NCATS), 2011)
Hit rate of the full screen: of about 340,000 compounds, about 170 (0.05%) were called active. The inconclusive results got no clear call from the source; some entries with a clear call stand among them for comparison. Calls come from the whole dose curve; as a rule, active = well fitted inhibition curve with a large enough effect in the signal ratio, with a control signal flat (not every such curve was filed as active); inconclusive = small, poorly fitted or top-dose-only effect, or effect the other way, or a change in a side signal; inactive = flat fitted curve, though single readings scatter; the % refers to the signal ratio. Potencies of inconclusive entries are doubtful fits and often do not repeat.

assay: qHTS Assay to Find Inhibitors of Chronic Active B-Cell Receptor Signaling; conditions: ABC-DLBCL IkBa-CBG/CBR reporter, luminescence ratio (green luciferase fused to IkBa over red control in TMD8 lymphoma cells), 4 h; activity change, negative = inhibition: at 46.1 µM (top of the series);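 for activity change, negative = inhibition: plate controls were basal doxycycline-induced cells for no effect and cells given 10 µM MG132 for full effect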
Procedure, shortened: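 Cell line TMD8 (human ABC DLBCL), stably expressing tet-inducible CBG68-IkBa fusion and CBR; IMDM/0.5% FBS; cpd up to 46 uM; dox induction, 4 h, 37C/5% CO2; dual luminescence; green/red ratio; MG132 control.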
Potency is the fitted concentration of half-maximal effect.

Compound | activity change, negative = inhibition | Potency
Cc1cc(C(=O)CSc2nnc(-c3cccnc3)n2-c2ccccc2F)c(C)n1CC1CCCO1 (configuration not stated) | inconclusive: 6.79% | 
COc1ccc(CCN(C)C(=O)CSc2ncnc3sccc23)cc1OC | inconclusive: -7.87% | 
Cc1ccc(S(=O)(=O)CCC(=O)OC(C)C(=O)N2CCc3ccccc32)cc1 (configuration not stated) | inconclusive: -11.7% | 
O=C(NC(=O)c1c(F)cccc1F)Nc1ccccc1SC(F)F |  | inconclusive: 7.08 µM [falling, partial curve]
COc1cc(CNC2CCCCCC2)cc(OC)c1 | inconclusive: 6.13% | 
Cc1ccc(S(=O)(=O)N2CCCCC2)cc1NC(=O)COC(=O)c1cccn1C | inconclusive: -13.7% | 
Cc1nc(C)c(C(=O)C2=C(O)C(=O)N(CCN(C)C)C2c2ccccc2)s1 (configuration not stated) | inconclusive: -1.78% | 
CC(=O)N1CCc2cc(C(=O)CN3CCN(c4cccc(Cl)c4)CC3)ccc21 | inconclusive: -0.748% | 
Oc1ccc(Nc2nnc(-c3ccc(O)cc3)c3ccccc23)cc1 |  | inconclusive: 10 µM [falling, partial curve]
COc1ccccc1NC(=O)CSC1=Nc2ccccc2C2=NC(CC(=O)NCc3cccs3)C(=O)N12 (configuration not stated) | inconclusive: -2.27% | 
Cc1ccccc1NC(=S)N=Nc1c(O)n(C)c2ccc(S(=O)(=O)N3CCOCC3)cc12 |  | inconclusive: 5.8 µM [falling, single point]
CCOC(=O)COc1cc(OCC(=O)OCC)c2c3c(c(=O)oc2c1)CCCC3 | inconclusive: -0.163% | 
O=C(Nc1ccc(NC(=O)c2cccs2)c(Cl)c1)c1ccco1 |  | inconclusive: 11.2 µM [falling, partial curve]
Cc1ccc(/C=N/n2c(-c3ccc(Cl)cc3)n[nH]c2=S)s1 | inactive | 
CCNC(=S)NNC(=O)c1ccc(OC(F)F)cc1 | inconclusive: -7.71% | 
CCCCN(C(=O)CNC(=O)c1cccs1)C(C(=O)NC1CCCC1)c1ccncc1 (configuration not stated) | inconclusive: -10.1% | 
COc1ccc(C)cc1NC(=O)c1cc2ccccc2cc1OCC(=O)NCc1ccco1 |  | inconclusive: 0.92 µM [falling, partial curve, poor fit]
COc1ccc(CC(=O)N/N=C/c2ccc(-c3cccc(C(=O)O)c3)o2)cc1OC | inconclusive: -25.6% | 
CCOc1ccccc1NC(=O)Nc1ccncc1 |  | inconclusive: 10 µM [falling, partial curve, poor fit]
NNC(=S)NCc1ccccc1 |  | inconclusive: 20 µM [falling, single point]
O=C(CSCc1c(Cl)cccc1Cl)Nc1ccc2c(c1)OCO2 |  | inconclusive: 5.8 µM [falling, full curve]

Compound | activity change, negative = inhibition | Potency
CC(=O)c1cccc(NC(=O)CCC2CCCC2)c1 | inconclusive: 7.11% | 
O=C(CCSc1ccccn1)c1ccccc1 | inactive | 
Cc1cccc2c(=O)n3c(nc12)CCCCC3 | inconclusive: -23.6% | 
CCOc1ccc(OCC)c(NC(=O)Nc2ccc3c(c2)N(C)C(=O)CS3)c1 |  | inconclusive: 14.6 µM [falling, partial curve, poor fit]
Cc1nn(CC(=O)N2CCN(c3cccc(C(F)(F)F)c3)CC2)c(=O)c2cccn12 | inactive | 
S=C(Nc1ccc(Cc2ccncc2)cc1)Nc1cccc(Cl)c1 | inactive | 
O=C(COc1ccc(Cl)cc1)c1ccc(O)cc1O | inactive | 
NC(=O)CSc1nc2cc(Cl)ccc2c(=O)n1C1CCCCC1 | inconclusive: 3.13% | 
CCCc1ccc(/C=C2\C(=O)c3ccccc3C(O)=C2C(=O)OCC)cc1 |  | inconclusive: 29.1 µM [falling, single point]
C=CCNC(=S)NN=C1CCCCCCC1 |  | inconclusive: 5.62 µM [cytotoxic, single point]
Cc1cc(NC(=O)c2cc(-c3cccs3)nc3ccccc23)no1 |  | inconclusive: 11.6 µM [rising, partial curve, poor fit]
Cc1ccc(N=Nc2c(C)[nH][nH]c2=O)c(C)c1 |  | inconclusive: 0.366 µM [falling, full curve, poor fit]
COc1ccc2oc(C(=O)OCC(=O)NC3(C#N)CCCC3)c(C)c2c1 | inactive | 
Cc1ccc(N=C2NC(=O)/C(=C/c3cccn3C)S2)cc1C |  | inconclusive: 20 µM [falling, partial curve, poor fit]
Cc1ccc(Cn2ccc(NC(=O)c3nn(C)cc3[N+](=O)[O-])n2)cc1 | inconclusive: -15.1% | 
O=C(NCCCO)Nc1ccc2nc(-c3ccco3)c(-c3ccco3)nc2c1 |  | inconclusive: 16.4 µM [rising, single point]
CSc1ccc(/C=C(/Sc2nnc(-c3ccccc3)o2)C(=O)O)cc1 | inconclusive: 6.13% | 
c1ccc(Cc2nnc3sc(-c4cccnc4)nn23)cc1 | inconclusive: 2.98% | 
COc1ccccc1NC(=O)C(=O)NCCC1CCCCN1S(=O)(=O)c1cccs1 (configuration not stated) | inconclusive: -15.2% | 
Cc1c(CC(=O)NCCCC(=O)O)c(=O)oc2cc3occ(-c4ccccc4)c3cc12 | inconclusive: 0.195% | 
Cc1ccccc1OCC(=O)NCC(=O)OCc1ccc(Br)cc1 | inactive | 

Reformatted tab-delimited: entries from further up.
Compound	activity change, negative = inhibition	Potency
CCCc1ccc(/C=C2\C(=O)c3ccccc3C(O)=C2C(=O)OCC)cc1		inconclusive: 29.1 µM [falling, single point]
C=CCNC(=S)NN=C1CCCCCCC1		inconclusive: 5.62 µM [cytotoxic, single point]
Cc1cc(NC(=O)c2cc(-c3cccs3)nc3ccccc23)no1		inconclusive: 11.6 µM [rising, partial curve, poor fit]

Additional results follow.

Compound | activity change, negative = inhibition | Potency
O=C(CCc1nc2ccccc2[nH]1)N1CCN(C(=O)c2ccco2)CC1 | inactive | 
O=C(CCCN1C(=O)c2ccccc2C1=O)NCc1cccnc1 | inconclusive: 29.9% | 
Cc1c(C(C)CCCO)oc(=O)c2c1Oc1c(C)c(C(C)C[C@H](C)O)oc(=O)c1C2 (some centres not stated) | inactive | 
C=C(NS(=O)(=O)c1ccc(C)cc1)C(=O)OC | inconclusive: -0.809% | 
C=CCN(CC=C)C(=O)C(=O)c1ccn(-c2c(C)csc2C(=O)OC)c1 | inactive | 
Cc1cc(=O)[nH]c2ccc(Cl)cc12 | inconclusive: -15% | 
COc1cc(C(=O)N/N=C/c2ccc(OC(=O)c3cccc(C)c3)cc2)ccc1O | inconclusive: -19.4% | 
O=C(CCl)N(c1ccccc1)C1CCCCC1 | inconclusive: 5.67% | 
C=CCn1c(SCC(=O)Nc2nc3ccccc3s2)nc(O)c(CC)c1=O | inconclusive: -8.14% | 
COc1ccc(OC)c(NC(=O)C2CC(C)=C(C)CC2C(=O)O)c1 (configuration not stated) | inconclusive: 10.2% | 
CCN(CC)CCCNC(=O)CN1N=C(c2ccc(OC)cc2)CCC1=O | inconclusive: 0.107% | inconclusive: 35.5 µM [falling, partial curve, poor fit]
CN(CC(=O)Nc1ccc(Cl)c(Cl)c1)C(=O)C1CCCC1 | inactive | 
CCOC(=O)C1CCN(C(=O)Nc2ccc(OC(F)(F)F)cc2)CC1 |  | inconclusive: 20 µM [falling, partial curve, poor fit]
Cc1cc(=O)oc2cc(OCC(=O)OCC(=O)Nc3ccc(C(N)=O)cc3)ccc12 | inconclusive: 12.4% | 
O=C(CSc1nnc(CNC(=O)c2c(F)cccc2Cl)o1)NCc1ccc(F)cc1 | inconclusive: 3.73% | 
Cc1cc(N/N=C/c2ccc(O)c(C)c2O)nc(-c2ccccc2O)n1 |  | inconclusive: 1.3 µM [rising, full curve, poor fit]
CC1=NNC(=O)C1CCC(=O)N/N=C\c1cccc(Cl)c1 (configuration not stated) | inconclusive: -25% | 
COc1cccc(CC2(CO)CCCN(Cc3cn(C)c4ccccc34)C2)c1 (configuration not stated) |  | inconclusive: 22.4 µM [falling, single point]
O=C(C1=C(O)C(=O)N(CCN2CCOCC2)C1c1ccc([N+](=O)[O-])cc1)c1cccs1 (configuration not stated) | inactive | 
CCN(CC)C(=O)CSc1nc(-c2ccccc2)ccc1C#N | inconclusive: 2.52% | 
CCOc1ccc(Nc2nc3c(C)cccc3cc2C#N)cc1 | inactive | 

Compound | activity change, negative = inhibition | Potency
Cc1ccc(-c2nnc(SCC(=O)N3CCN(c4ccccc4)CC3)o2)cc1 | inconclusive: 0.361% | 
CCC(=O)Nc1ccc(S(=O)(=O)Nc2ncccn2)cc1 | inactive | 
Nn1c(COc2ccccc2)nnc1SCC(=O)O | inconclusive: 3.96% | 
CCNC(=O)COc1cc(C)c(Cl)c(C)c1 | inconclusive: 1.96% | 
CCOC(=O)[C@@H]1[C@H]2COc3ccccc3[C@@H]2N2C(=O)N(c3ccc(Br)cc3)C(=O)[C@]12C | inactive | 
Cc1cc(C=O)c(O)cc1O | inactive | 
CCc1cccc2c(C(=O)C(NC(C)CC)c3ccccc3)c[nH]c12 (configuration not stated) | inconclusive: -0.562% | 
COc1cc2c(N3CCOCC3)cc(O)c(CC(=O)Nc3ccccc3)c2cc1OC |  | inconclusive: 6.51 µM [falling, partial curve, poor fit]
Cc1cc(C(=O)NNc2ccc(C(C)C)cc2)n(C(C)(C)C)n1 | inactive | 
COC(=O)c1cnn(-c2ccc(C(=O)Nc3cc(OC)c(OC)c(OC)c3)cc2)c1N | inconclusive: 12.2% | 
CCOC(=O)c1cc(-c2ccc(OC)cc2)n(CCC(=O)Nc2nc3ccc(OCC)cc3s2)c1C | inconclusive: -1.2% | 
COc1cc(-c2nnc(-c3ccccc3)o2)cc(OC)c1OC |  | inconclusive: 29.1 µM [falling, single point]
COc1ccc(-n2nnnc2SCC(=O)NC2CC2)cc1 | inconclusive: 1.97% | 
COC(=O)N/N=C/c1cc(C)n(-c2ccc(F)cc2)c1C | inconclusive: -1.2% | 
CC(C)c1ccc(C(=O)NC(=S)Nc2ccc3[nH]c(=O)[nH]c3c2)cc1 | inconclusive: -0.232% | 
Cc1cccnc1CN1CCN(Cc2nc(Cc3cccc(F)c3)no2)CC1 | inactive | 
COc1ccc(Cl)cc1NS(=O)(=O)c1cccc(C(=O)NCC(c2ccco2)N2CCCC2)c1 (configuration not stated) | inconclusive: -2.16% | 
COc1ccc2nc(-c3ccccc3)[nH]c2c1 |  | inconclusive: 29.1 µM [falling, single point]
